Results deposited as PubChem BioAssay AID493246 (Drosophila RNAi Screening Center, 2011)
Purpose: 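Genome-wide search for dsRNAs that reduce cell number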 (primary screen). Cells: Drosophila Kc and S2R+ cells. Reagents: long dsRNA against Drosophila genes. Measured: 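Cell number per well after knock-down, printed as raw plate values; calls were based on per-plate z-scores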. Direction: Kc cell number and S2R+ cell number: higher = more cells remaining. Hit rule: 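Active when the per-plate z-score of cell number is 3 or more in the direction of fewer cells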.
In all, the deposit lists about 21,000 reagents; below is a random part of those with a known target gene and a result. Of all reagents, 429 (2%) got an active call. 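Values are raw and not normalised between plates; calls rest on per-plate z-scores that were not deposited.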 A plus sign joins genes that one reagent is predicted to hit. Not stated in the record: the amount of reagent, the time to read-out.

Target gene	amplicon	Kc cell number, rep 1	Kc cell number, rep 2	S2R+ cell number, rep 1	S2R+ cell number, rep 2	Call
Kebab (GeneID 48440)	DRSC00827	1.44e6	1.40e6	8.23e5	9.23e5	inactive
CREG (GeneID 42092)	DRSC16595	1.23e6	1.28e6	1.18e6	1.38e6	inactive
CG14125 (GeneID 39359)	DRSC10129	1.31e6	1.40e6	1.34e6	1.50e6	inactive
CG9289 (GeneID 34195)	DRSC03187	1.50e6	1.55e6	1.28e6	1.49e6	inactive
Gnpat (GeneID 53586)	DRSC16960	1.60e6	1.53e6	9.51e5	1.08e6	inactive
CG4691 (GeneID 34856)	DRSC01950	1.31e6	1.37e6	1.41e6	1.28e6	inactive
CG9747 (GeneID 43591)	DRSC16554	1.38e6	1.30e6	9.99e5	1.16e6	inactive
CG6094 (GeneID 34446)	DRSC02927	1.34e6	1.09e6	7.88e5	7.58e5	inactive
yellow-c + CIAPIN1	DRSC01898	1.56e6	1.59e6	1.33e6	1.39e6	inactive
Gr58b (GeneID 37502)	DRSC04140	1.48e6	1.57e6	1.30e6	4.49e5	inactive
N (GeneID 31293)	DRSC18685	1.43e6	1.48e6	1.06e6	1.20e6	inactive
Dgkepsilon (GeneID 36408)	DRSC07399	1.36e6	1.49e6	1.17e6	1.30e6	inactive
Cad96Cb (GeneID 43033)	DRSC14243	1.49e6	1.56e6	9.53e5	1.01e6	inactive
Cad96Cb (GeneID 43033)	DRSC14665	1.56e6	1.69e6	1.03e6	1.15e6	inactive
CG11920 (GeneID 43009)	DRSC14439	1.50e6	1.63e6	1.24e6	1.35e6	inactive
CG15414 (GeneID 33570)	DRSC00429	1.63e6	1.60e6	1.23e6	1.38e6	inactive
CG4497 (GeneID 34001)	DRSC02754	1.20e6	1.25e6	6.40e5	6.91e5	inactive
CG8117 (GeneID 32499)	DRSC20082	1.70e6	1.64e6	9.98e5	1.06e6	inactive
CG14269 (GeneID 31312)	DRSC17912	1.53e6	1.56e6	1.10e6	1.24e6	inactive
CG3552 (GeneID 39097)	DRSC10370	1.27e6	1.28e6	1.22e6	1.30e6	inactive
CG11035 (GeneID 40953)	DRSC14287	1.52e6	1.60e6	1.22e6	1.31e6	inactive
phtm (GeneID 32857)	DRSC20237	1.51e6	1.56e6	9.06e5	1.02e6	inactive
saturn (GeneID 317880)	DRSC09303	1.47e6	1.49e6	1.15e6	1.29e6	inactive
lobo (GeneID 4379864)	DRSC14662	1.69e6	1.61e6	9.80e5	1.14e6	inactive
lobo (GeneID 4379864)	DRSC14663	1.61e6	1.53e6	1.06e6	1.12e6	inactive
